According to PMC9098222:
These are yes or no findings as the source states them, for the method shown. In cells and extracts the contact can be indirect. Binding can be weak; no strength is given.

Chains of the proteins cited; added tags and fusions are not shown. Lines headed by an entry give the natural chain unless they say otherwise; changes in a name come on top.
UniProt O14654: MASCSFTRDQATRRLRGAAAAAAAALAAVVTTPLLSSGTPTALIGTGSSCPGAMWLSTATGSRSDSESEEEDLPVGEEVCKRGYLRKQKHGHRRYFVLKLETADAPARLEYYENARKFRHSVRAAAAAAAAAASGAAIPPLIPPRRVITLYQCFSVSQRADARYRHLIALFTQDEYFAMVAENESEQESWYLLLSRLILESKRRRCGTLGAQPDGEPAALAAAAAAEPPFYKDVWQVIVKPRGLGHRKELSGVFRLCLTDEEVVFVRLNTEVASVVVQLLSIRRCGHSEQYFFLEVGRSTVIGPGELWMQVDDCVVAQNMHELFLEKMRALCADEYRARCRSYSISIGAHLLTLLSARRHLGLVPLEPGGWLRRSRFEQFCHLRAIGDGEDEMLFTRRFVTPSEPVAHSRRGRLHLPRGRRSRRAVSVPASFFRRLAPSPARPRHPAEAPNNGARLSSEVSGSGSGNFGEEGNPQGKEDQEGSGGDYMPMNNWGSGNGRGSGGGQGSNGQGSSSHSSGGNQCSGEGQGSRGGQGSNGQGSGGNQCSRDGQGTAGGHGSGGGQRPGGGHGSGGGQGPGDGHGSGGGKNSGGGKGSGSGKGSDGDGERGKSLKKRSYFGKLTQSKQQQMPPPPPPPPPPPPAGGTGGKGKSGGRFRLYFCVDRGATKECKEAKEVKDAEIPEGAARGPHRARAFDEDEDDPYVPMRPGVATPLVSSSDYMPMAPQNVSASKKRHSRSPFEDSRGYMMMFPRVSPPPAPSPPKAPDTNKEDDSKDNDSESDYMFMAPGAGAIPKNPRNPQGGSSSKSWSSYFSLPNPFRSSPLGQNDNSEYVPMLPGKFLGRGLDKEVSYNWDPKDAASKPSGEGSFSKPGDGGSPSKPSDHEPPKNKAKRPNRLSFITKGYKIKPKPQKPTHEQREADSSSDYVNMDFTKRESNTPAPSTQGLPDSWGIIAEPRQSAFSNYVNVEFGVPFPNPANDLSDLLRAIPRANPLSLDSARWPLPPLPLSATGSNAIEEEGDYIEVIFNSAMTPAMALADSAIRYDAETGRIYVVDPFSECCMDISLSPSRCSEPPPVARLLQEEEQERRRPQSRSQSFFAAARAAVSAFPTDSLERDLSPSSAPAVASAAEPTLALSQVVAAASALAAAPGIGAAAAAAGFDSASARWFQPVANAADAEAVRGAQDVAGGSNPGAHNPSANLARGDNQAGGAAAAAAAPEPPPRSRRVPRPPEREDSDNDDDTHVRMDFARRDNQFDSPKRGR
UniProt P16591: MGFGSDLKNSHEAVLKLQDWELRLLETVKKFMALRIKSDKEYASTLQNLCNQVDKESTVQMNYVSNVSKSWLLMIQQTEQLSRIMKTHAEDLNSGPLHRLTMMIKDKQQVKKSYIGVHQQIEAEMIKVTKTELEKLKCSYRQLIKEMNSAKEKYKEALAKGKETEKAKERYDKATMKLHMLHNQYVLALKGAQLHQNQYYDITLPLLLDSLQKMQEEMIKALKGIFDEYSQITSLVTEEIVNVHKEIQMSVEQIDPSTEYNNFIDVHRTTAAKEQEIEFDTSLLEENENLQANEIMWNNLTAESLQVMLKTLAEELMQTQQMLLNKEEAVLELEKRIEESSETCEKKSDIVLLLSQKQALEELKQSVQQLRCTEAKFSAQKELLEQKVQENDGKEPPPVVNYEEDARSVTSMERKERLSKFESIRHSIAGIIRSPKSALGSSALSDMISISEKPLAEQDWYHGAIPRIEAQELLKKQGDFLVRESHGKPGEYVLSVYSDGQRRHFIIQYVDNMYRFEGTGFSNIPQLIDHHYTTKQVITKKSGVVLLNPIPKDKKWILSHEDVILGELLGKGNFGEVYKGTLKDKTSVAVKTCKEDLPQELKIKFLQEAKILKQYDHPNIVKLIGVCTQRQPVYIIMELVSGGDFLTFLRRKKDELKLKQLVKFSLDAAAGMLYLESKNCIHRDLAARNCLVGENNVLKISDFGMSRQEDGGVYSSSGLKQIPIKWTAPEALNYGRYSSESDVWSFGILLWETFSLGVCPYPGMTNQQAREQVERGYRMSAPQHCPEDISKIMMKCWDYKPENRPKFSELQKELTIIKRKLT

Key:
Myc-IRS4ΔPTB (human) = Myc-IRS4ΔPTB (human) (UniProt O14654); test: co-IP; HEK293FT cells transiently co-transfected; lysis in 20 mM HEPES pH 7.5, 150 mM NaCl, 1% Nonidet P-40, 1 mM sodium orthovanadate; Myc-tagged IRS4 form precipitated with anti-Myc resin, partners found by immunoblot; some panels with or without co-expressed FLAG-IRS1, FLAG-PIK3R1 or FER
Myc-IRS4ΔPH (human) = Myc-IRS4ΔPH (human) (UniProt O14654); test: as above

GFP-tagged FER (from UniProt P16591 1-822) (enzyme)
binding (Myc-IRS4ΔPTB (human)): binds | binding (Myc-IRS4ΔPH (human)): binds
